Our source for the growth estimate values is the supplement of paper PMC5949888.

Most values lie at the floor of the assay. Slopes are relative: functional sequences can read slightly below zero.

This data set has as its system Saccharomyces cerevisiae PS128 hsf1 delta, HSF1(1-493) fusion. The data set is described as follows: growth estimate (transactivation domain function in HSF1 fusion, heat-shock survival) (a.u. (slope of normalised read count over time)); higher = stronger growth at 37°C, i.e. more transactivation activity. Particulars: library: random library.
As for PDWISGCTPKFRVRWGPELR, the growth estimate is < -0.25.

For AVTQGLWTPRAGAA, the growth estimate is < -0.25.

LHTP: the growth estimate was < -0.25.

For the substance PAEQSFLGILWGHYLPLARI, the growth estimate is < -0.25.

Turning to KQLRLAGCPNANTALLSAMS, the growth estimate is -0.219.

On to GSGRAYMR, for which the growth estimate was < -0.25.

On to IRPASLARLRGGTRSSSTSA, for which the growth estimate is < -0.25.

In the case of THLLAIASEVKVSLPGSART, the growth estimate is < -0.25.

In the case of GNPHALF, the growth estimate is < -0.25.

Turning to IFAGSAPPSRIMGILFGGLP, the growth estimate was < -0.25.

For TLHSATFRNSQ, the growth estimate is -0.246.

For EECQESAYITVPAGSHKA, the growth estimate was < -0.25.

On to FYYLVPDVRSSKTWWGYGKL, for which the growth estimate is < -0.25.

Regarding RVVLERGCTIRKYPATAWRG, the growth estimate is < -0.25.

For RIGSLREGPSRSDDCDRDAQ, the growth estimate was < -0.25.

KGQPMTVGLRLMPIRNPLVV: the growth estimate was < -0.25.

Take HCGHISRRPNIWR: the growth estimate was < -0.25.

As for IGLMGLWIWQPTSPGVADSG, the growth estimate was < -0.25.

Take SGLCTLRFRQSLFIYRG: the growth estimate is < -0.25.

As for ERLGLFV, the growth estimate is < -0.25.

For the substance RSYIMRFARRGKGTQRNSAS, the growth estimate is < -0.25.

In the case of VATALRDRP, the growth estimate is < -0.25.

Regarding RRLGRVKAPGQMCT, the growth estimate is < -0.25.

For the substance QMLVEMRRYREQSRGEVTQT, the growth estimate was < -0.25.

For the substance AYV, the growth estimate was < -0.25.

With RRAYVGLPGLTVSSSSKRIH, the growth estimate was -0.231.

As to GIEGMVEEFSRSMF, the growth estimate is < -0.25.

For PGHIQICDMVSWLYVGLGGR, the growth estimate is < -0.25.

With MCNR, the growth estimate was 0.0639.

For ARNMKAEKVCSVFT, the growth estimate is < -0.25.

For the substance VCSRP, the growth estimate is < -0.25.

Consider FANQPWVKDGPMGLLNNQSD, for which the growth estimate is < -0.25.

For PSRSLLHSR, the growth estimate is < -0.25.

Consider STC, for which the growth estimate was < -0.25.

LTTSVISRSTFRVIQV: the growth estimate is < -0.25.

In the case of QFVGEGTRDACICLYAGNGD, the growth estimate was -0.0944.

For HGANHST, the growth estimate is < -0.25.

Regarding SFRSKINPIALQLGNRKSTA, the growth estimate was < -0.25.

With WQIRGYLWRSPRVTRTYL, the growth estimate is < -0.25.

As to TWSK, the growth estimate is < -0.25.

Regarding RNSAPRL, the growth estimate was < -0.25.

For KELTRDKSPSWGSVWIISCS, the growth estimate is < -0.25.

Turning to SMQEEGGRAQSEPRCRRYTR, the growth estimate is < -0.25.

As for YTPKRMTSGC, the growth estimate was < -0.25.

On to RLYVTSAWTYA, for which the growth estimate was < -0.25.

Turning to WMAKLKARQGPTLFIHGIFG, the growth estimate was -0.248.

Regarding RNLRVRGATGDVLPASVA, the growth estimate is < -0.25.

On to CAFTELLNSKREGI, for which the growth estimate is < -0.25.

As to QMYADTE, the growth estimate was < -0.253.

As for RDHLCTRWSLELDY, the growth estimate was < -0.25.

Regarding HNRWLDLESGQLKFDKAP, the growth estimate was < -0.25.

In the case of RQFENSVSGILWGYLQELDL, the growth estimate is -0.222.

Take SAGCLVGSCTLESDQLGPGL: the growth estimate was < -0.25.

Consider KGPPQQVFAWVLRTSWPALE, for which the growth estimate is < -0.25.

Regarding ECVTASEDSSVTLTGAERTL, the growth estimate was < -0.25.

Turning to PAIAKMGSLPTASRDLPLRP, the growth estimate is < -0.25.

Turning to RLERG, the growth estimate is < -0.25.

For the substance AWNTKSIARDSVSKPSRRVT, the growth estimate was < -0.25.

Consider LLPERGEHLIVTGYACWGRE, for which the growth estimate was < -0.25.

For GYLCNTLLGLRRYR, the growth estimate was < -0.25.

In the case of LSPRVSLWSIR, the growth estimate was < -0.25.

Regarding GLGCARSTRDRLRRLDV, the growth estimate was < -0.25.

With DPTFRATCMGTLHVPPLGK, the growth estimate was < -0.25.

Take LRHQELFGVRLTMPGGLGYS: the growth estimate was < -0.25.

As for TNVSSEGLRYHVVTVGRPGF, the growth estimate is < -0.25.

For LWSRGGRSWAICSECVRQPS, the growth estimate is < -0.25.

As for KFGIAEPLPRLEERSVSLSF, the growth estimate is < -0.25.

As for AILSSRSVRLCSSVERGIIT, the growth estimate is < -0.25.

LVTSEEARMKETPQVVVG: the growth estimate is -0.25.

For the substance STA, the growth estimate is < -0.25.

PLFNRTPIVGSSIICS: the growth estimate was < -0.25.

Consider GPPKKREVKQVITHWGSTR, for which the growth estimate is < -0.25.

On to RLHSNLRDSLKVT, for which the growth estimate is < -0.25.

With GANVVAKGRGRQKARLASFS, the growth estimate is -0.241.

In the case of SVRGLRETVRRSISKKAIRR, the growth estimate was < -0.25.

As to IGIQTPCPESAAPLWSHPC, the growth estimate was < -0.25.

Take IKTIFIGGTCLSESIL: the growth estimate is < -0.25.

Regarding NGYS, the growth estimate is < -0.25.
